Source: paper PMC3675111
These are yes or no findings as the source states them, for the method shown. Binding seen in cells or lysates may run through a third protein. Some entries that bind do so weakly or less than the wild type.

By UniProt entry, the sequences of proteins in these tests, tags left out. Where a name states a change or a piece, a line headed by the entry shows the natural chain unless it says otherwise.
UniProt P05555: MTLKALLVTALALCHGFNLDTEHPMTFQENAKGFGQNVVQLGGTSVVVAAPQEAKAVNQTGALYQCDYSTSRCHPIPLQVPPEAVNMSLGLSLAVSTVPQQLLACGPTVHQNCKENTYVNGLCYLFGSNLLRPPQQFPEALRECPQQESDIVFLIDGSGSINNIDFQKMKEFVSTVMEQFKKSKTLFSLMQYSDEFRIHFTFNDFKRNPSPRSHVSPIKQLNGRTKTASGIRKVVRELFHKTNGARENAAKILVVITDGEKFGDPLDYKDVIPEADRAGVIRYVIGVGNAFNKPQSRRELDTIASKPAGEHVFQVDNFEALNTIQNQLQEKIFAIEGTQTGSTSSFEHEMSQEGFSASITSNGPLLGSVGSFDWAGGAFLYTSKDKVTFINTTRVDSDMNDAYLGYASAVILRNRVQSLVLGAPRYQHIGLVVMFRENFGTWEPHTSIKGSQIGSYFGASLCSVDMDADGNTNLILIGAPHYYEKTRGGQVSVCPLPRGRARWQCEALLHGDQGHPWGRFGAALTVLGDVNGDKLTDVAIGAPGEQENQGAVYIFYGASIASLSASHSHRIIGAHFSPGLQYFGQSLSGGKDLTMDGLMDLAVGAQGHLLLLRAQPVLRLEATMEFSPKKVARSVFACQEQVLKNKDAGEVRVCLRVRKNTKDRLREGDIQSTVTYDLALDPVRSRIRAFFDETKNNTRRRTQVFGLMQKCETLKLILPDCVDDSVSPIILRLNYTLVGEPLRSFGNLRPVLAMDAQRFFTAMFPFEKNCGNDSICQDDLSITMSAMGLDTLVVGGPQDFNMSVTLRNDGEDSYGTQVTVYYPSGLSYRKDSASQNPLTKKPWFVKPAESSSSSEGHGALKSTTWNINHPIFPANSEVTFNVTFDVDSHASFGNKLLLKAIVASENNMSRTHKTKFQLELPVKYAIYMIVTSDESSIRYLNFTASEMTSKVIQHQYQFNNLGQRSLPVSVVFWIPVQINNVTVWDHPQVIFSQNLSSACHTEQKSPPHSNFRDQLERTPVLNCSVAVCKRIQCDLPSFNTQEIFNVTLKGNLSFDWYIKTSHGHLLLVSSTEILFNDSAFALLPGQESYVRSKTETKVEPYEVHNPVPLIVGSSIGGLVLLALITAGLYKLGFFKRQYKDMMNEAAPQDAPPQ

Molecular target: T1, protein kinase C zeta (PKCζ) (mouse (endogenous in peritoneal neutrophils)) (UniProt Q02956)
T1 sequence: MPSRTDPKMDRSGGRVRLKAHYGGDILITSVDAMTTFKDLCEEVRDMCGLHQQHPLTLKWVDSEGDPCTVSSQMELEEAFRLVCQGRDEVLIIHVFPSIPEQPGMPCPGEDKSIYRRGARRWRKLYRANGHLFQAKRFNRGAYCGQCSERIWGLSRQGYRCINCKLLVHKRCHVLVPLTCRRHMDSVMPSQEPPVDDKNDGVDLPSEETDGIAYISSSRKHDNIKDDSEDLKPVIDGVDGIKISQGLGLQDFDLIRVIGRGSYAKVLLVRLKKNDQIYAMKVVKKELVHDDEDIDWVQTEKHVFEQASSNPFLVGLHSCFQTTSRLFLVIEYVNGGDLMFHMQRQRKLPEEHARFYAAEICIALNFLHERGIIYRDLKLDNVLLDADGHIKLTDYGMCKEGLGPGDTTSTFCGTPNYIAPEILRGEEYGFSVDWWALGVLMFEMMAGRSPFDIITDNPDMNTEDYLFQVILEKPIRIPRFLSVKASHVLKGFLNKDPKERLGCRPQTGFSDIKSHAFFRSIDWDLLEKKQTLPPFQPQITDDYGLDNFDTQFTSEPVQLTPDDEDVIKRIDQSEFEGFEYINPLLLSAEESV
Test: co-IP; lysates (RIPA buffer) of mouse peritoneal neutrophils (WT or CD40-/-), unstimulated or stimulated with rm-CD40L 100 ng/ml for 5, 15, 30 min; immunoprecipitated overnight at 4°C with anti-PKCζ antibody, protein A beads; immunoblot with anti-Mac-1 (CD11b) antibody

“β2 integrin Mac-1 (CD11b/CD18) (from UniProt P05555 17-1153; P11835 24-771) (complex)” was tested, and the binding was “binds”.
